Laboratory results: the Bradley open melting point set (2014)

## CCC[C@H](NC(=O)OC(C)(C)C)C(=O)O [N-boc-L-norvaline]
  melting point: 45 °C
